Laboratory results as given in patent publication US20100190735A1, “Mouthwash and Method of Using Same for the Treatment of Mucositis or Stomatitis” (priority 2006, published 2010).
Where a name gives a salt, the structure may show the parent alone.

Assay: Storage stability of mouth rinse formulation B8: potency of the actives by HPLC
Type: physicochemical
Description: Quantification of the respective ingredients was done using high performance liquid chromatography (HPLC). A difference in calculated quantity of less than 5% from the intial formulation (i.e. time=0) amount was considered a “pass”, that is, indicative of minimal degradation. The relative standard deviation for the HPLC calculations was 3%.

C[C@@H]1C[C@H]2[C@@H]3CCC4=CC(=O)C=C[C@]4(C)[C@@]3(F)[C@@H](O)C[C@]2(C)[C@@]1(O)C(=O)COP(=O)(O)O [Dexamethasone sodium phosphate, Dexamethasone 21-phosphate disodium salt]
Potency (of label claim) (formulation B8, 2 months at 40° C.): 100.8%
Potency Pass/fail (formulation B8, 2 months at 40° C., 90 to 110% of label claim, less than 5% change): Pass (A difference in calculated quantity of less than 5% from the intial formulation (i.e. time=0) amount was considered a “pass”)
Potency (of label claim) (formulation B8, 2 months at room temperature): 98.1%
Potency Pass/fail (formulation B8, 2 months at room temperature, 90 to 110% of label claim, less than 5% change): Pass (A difference in calculated quantity of less than 5% from the intial formulation (i.e. time=0) amount was considered a “pass”)
Potency (of label claim) (formulation B8, 3 months at 40° C.): 97.1%
Potency Pass/fail (formulation B8, 3 months at 40° C., 90 to 110% of label claim, less than 5% change): Pass (A difference in calculated quantity of less than 5% from the intial formulation (i.e. time=0) amount was considered a “pass”)
Potency (of label claim) (formulation B8, 3 months at room temperature): 102.7%
Potency Pass/fail (formulation B8, 3 months at room temperature, 90 to 110% of label claim, less than 5% change): Pass (A difference in calculated quantity of less than 5% from the intial formulation (i.e. time=0) amount was considered a “pass”)
Potency (of label claim) (formulation B8, 4 months at 40° C.): 102.7%
Potency Pass/fail (formulation B8, 4 months at 40° C., 90 to 110% of label claim, less than 5% change): Pass (A difference in calculated quantity of less than 5% from the intial formulation (i.e. time=0) amount was considered a “pass”)
Potency Pass/fail (formulation B8, 4 months at room temperature, 90 to 110% of label claim, less than 5% change): Pass (A difference in calculated quantity of less than 5% from the intial formulation (i.e. time=0) amount was considered a “pass”)
Potency (of label claim) (formulation B8, 12 months at fridge 4° C.): 96.3%
Potency Pass/fail (formulation B8, 12 months at fridge 4° C., 90 to 110% of label claim, less than 5% change): Pass (A difference in calculated quantity of less than 5% from the intial formulation (i.e. time=0) amount was considered a “pass”)
Potency (of label claim) (formulation B8, 12 months at room temperature): 100.1%
Potency Pass/fail (formulation B8, 12 months at room temperature, 90 to 110% of label claim, less than 5% change): Pass (A difference in calculated quantity of less than 5% from the intial formulation (i.e. time=0) amount was considered a “pass”)
Potency (of label claim) (formulation B8, time = 0): 103.2%
Potency Pass/fail (formulation B8, time = 0, limits 90 to 110% of label claim): Pass (A difference in calculated quantity of less than 5% from the intial formulation (i.e. time=0) amount was considered a “pass”)
